# From PubChem BioAssay AID1259415 (National Center for Advancing Translational Sciences (NCATS), 2018)
# In all, about 410,000 compounds went through this assay and about 18,000 (4.4%) were called active. Inconclusive means that the source gave no clear call. Such entries were picked first, then a sample of the others. Rule as the data show it: active = activity change below about -60%; inconclusive = no clear call, values can overlap the other calls; inactive = above about -39%.
# Assay: qHTS Assay for inhibitors of the human cytomegalovirus (HCMV)
# Settings: HFF cells, HCMV-luciferase reporter, 72 h; at 57.5 µM; stronger effect = lower value
# Procedure, shortened: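 Human foreskin fibroblasts infected with luciferase-reporter HCMV at MOI 1 PFU/cell, compounds at two doses. Luciferase measured 72 h post infection; normalized to buffer-only basal and Salinomycin (10uM) controls.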
# % is scaled to controls: 0 for no effect and ±100 for the full control effect.
row,SMILES,"activity change, negative = inhibition"
1,CCOC(=O)CSc1ccc2ccccc2n1,inconclusive: -42.4%
2,COc1ccccc1NC(=O)CSc1nncn2c1cc1sccc12,inconclusive: -50.4%
3,C/C(=C\C(=O)c1ccc(Br)cc1)NCc1ccc(C)cc1,inconclusive: -40.7%
4,Cc1ccc(C(C(=O)NCC2CCCO2)N(C(=O)c2snc(C(N)=O)c2N)c2ccc(F)cc2)o1 (centres undefined),active: -74.8%
5,Cc1ccc(NC(=O)CN(C)C(=O)Cc2ccc(Cl)c(Cl)c2)cc1,inactive: 7.08%
6,CCCS(=O)(=O)NC(=O)C1(C)CCCN(C(=O)c2cccc(OC(F)(F)F)c2)C1 (centres undefined),inactive: 46%
7,COc1ccc2cc1Oc1ccc(cc1)C[C@H]1c3cc(c(OC)cc3CCN1C)Oc1c(OC)c(OC)cc3c1[C@H](C2)N(C)CC3,inconclusive: -48.6%
8,COc1ccc(C(C(=O)NCc2ccccc2)N(C(=O)c2snc(C(N)=O)c2N)c2ccccc2OC)cc1OC (centres undefined),active: -74.6%
9,Cc1ccc2c(c1)N(C(=O)CCC(=O)NCCCN1CCC(Cc3ccccc3)CC1)CCO2,inconclusive: -40.1%
10,O=C(N/N=C/C=C/c1ccccc1[N+](=O)[O-])c1cccs1,inconclusive: -50.4%
11,Cc1ccc(OCC(=O)Nc2ccc(S(=O)(=O)Nc3ccccn3)cc2)cc1,inconclusive: -45%
12,COC(=O)C(NC(=O)CN1C(=O)c2ccccc2C1=O)c1ccc(O)c(OC)c1 (centres undefined),inactive: 4.1%
13,CC1(C)CC(NC(=O)Nc2ccc([N+](=O)[O-])cc2)CC(C)(C)N1,inactive: -20.3%
14,CCOc1ccc(NC(=O)c2cc(S(=O)(=O)N3CCc4ccccc43)ccc2F)cc1,inconclusive: -52.2%
15,CCCCOc1ccc(CSCCNC(=S)Nc2ccccc2)cc1,inconclusive: -43.2%
16,C[C@@H](NC(=O)/C(C#N)=C/c1ccc(O)c(O)c1)c1ccccc1,active: -98.2%
17,N/C(=N\OC(=O)N1c2ccccc2Sc2ccccc21)c1ccccc1,inconclusive: -45.1%
18,O=S(=O)(NC1CCCC1)c1ccccc1Br,active: -97.4%
19,COc1cccc(C(=O)Nc2c3c(nn2-c2ccc(Cl)cc2)CS(=O)(=O)C3)c1OC,inconclusive: -40.3%
20,COc1ccc(Oc2nc(-c3ccccn3)nc3ccccc23)cc1,active: -69.8%
21,O=C(COC(=O)C1=COCCO1)NCc1ccc(Cl)cc1Cl,active: -60.6%

row,SMILES,"activity change, negative = inhibition"
1,CC1CC1C(=O)Nc1cc(S(=O)(=O)N2CCOCC2)ccc1N1CCCC1 (centres undefined),inconclusive: -51.3%
2,COC(=O)[C@@H]1CCCN1C(=O)CCc1nnc(C2CCCCC2)o1,inactive: -24.3%
3,CCC(C)[C@H](NC(=O)OC(C)(C)C)C(=O)N/N=C/C1=Cc2ccccc2OC1 (some centres undefined),inconclusive: -43.4%
4,O=C(CCSc1nc2ccccc2o1)N1CCOCC1,inactive: 93.7%
5,CCOc1ccc(NC(=O)CCN2CCN(c3ccccc3OC)CC2)cc1,inconclusive: -43.3%
6,Cn1nc(C(C)(C)C)cc1C(=O)NCc1ccc2c(c1)OCO2,active: -83.1%
7,COc1ccccc1N(C)S(=O)(=O)c1ccc(C(=O)NCc2ccc3c(c2)OCO3)cc1,inconclusive: -42.6%
8,COc1cc(NS(=O)(=O)c2ccc(NC(=S)NC(=O)c3ccc(F)cc3)cc2)nc(OC)n1,inactive: 14.8%
9,CN1CCN(S(=O)(=O)c2ccc(N(C)Cc3ccc(C(F)(F)F)cc3)c([N+](=O)[O-])c2)CC1,inconclusive: -52.5%
10,Cc1ccc(C)c(Oc2ncnc(N)c2[N+](=O)[O-])c1,inconclusive: -47.5%
11,O=C(NCCCn1ccnc1)c1cccc(S(=O)(=O)N2CCCCCC2)c1,inconclusive: -40.2%
12,O=C(CCl)Nc1ccccc1C(=O)NCc1ccccc1,inconclusive: -49.9%
13,Cc1ccc(C)c(NC(=O)CSc2n[nH]c(-c3ccccn3)n2)c1,inconclusive: -43.5%
14,CCN(CC)S(=O)(=O)c1cccc(C(=O)N/N=C/c2cccc(O)c2O)c1,inactive: -23.9%
15,CC1CN(C(=O)c2ccccc2)C(=Nc2cccc(S(=O)(=O)N(C)C)c2)S1 (centres undefined),inconclusive: -41.7%
16,CCC(COC)NCc1cn(-c2ccc(OC)cc2)nc1-c1cccc(F)c1 (centres undefined),inconclusive: -53%
17,c1ccc(Nc2nc(N3CCNCC3)nc(N3CCOCC3)n2)cc1,inactive: 126%
18,COc1cc(C[C@@H]2C(=O)OC[C@H]2Cc2ccc(OC)c(OC)c2)ccc1O,active: -89.8%
19,COc1ccc(NC(=O)CN(c2cc(C)cc(C)c2)S(=O)(=O)c2c(C)noc2C)cc1,inconclusive: -54.2%
20,O=C(CSc1nc2ccc(N3CCOCC3)cc2c(=O)n1CCc1ccccc1)NCC1CCCO1 (centres undefined),inconclusive: -55%
21,CCN(CC)S(=O)(=O)c1ccc2c(c1)N(CC(=O)NCc1ccccc1)C(=O)C1CCCCN21 (centres undefined),inactive: 7.18%

row,SMILES,"activity change, negative = inhibition"
1,OCCCNCc1ccc(N(c2ccccc2)c2ccccc2)cc1,inconclusive: -57.9%
2,Cc1ccc(N(C(=O)c2sc(C)nc2C)C(C(=O)NCc2ccco2)c2ccccc2)cc1 (centres undefined),inconclusive: -51.4%
3,CC(NC(=O)Nc1cccc([N+](=O)[O-])c1)(C(F)(F)F)C(F)(F)F,active: -93.3%
4,CCc1ccccc1NC(=O)Nc1cccs1,inconclusive: -57.7%
5,CC(C)CCC(C)NC(=O)c1ccc2nccnc2c1 (centres undefined),inactive: 43%
6,CCc1cccc(NC(=O)Cc2ccc([N+](=O)[O-])cc2)c1,inactive: -26.7%
7,Cc1nn(C)c(C(=O)Nc2ccn(Cc3ccccc3F)n2)c1[N+](=O)[O-],inconclusive: -50.9%
8,COc1ccc(CNC(=O)c2ccc3c(=O)n(CCCN4CCCC4=O)c(=S)[nH]c3c2)cc1,inactive: -25.7%
9,CCC(=O)Oc1c(Sc2ccc(Cl)cc2)c(C)nn1-c1ccccc1,active: -93.5%
10,Cc1c(NC(=O)OCCNC(=O)COc2ccc(Cl)cc2Cl)sc(=S)n1C,inconclusive: -56%
11,CCC(C)(C)C1CCC2(CC1)NC(=O)N(CC(=O)N(C)CCOc1ccc(Cl)cc1)C2=O (centres undefined),inconclusive: -53%
12,O=C(/C=C/Nc1ccc(S(=O)(=O)Nc2ncccn2)cc1)c1ccc(Cl)c(Cl)c1,inconclusive: -43.4%
13,O=C1NN(c2cccc(Br)c2)C(=O)/C1=C\c1ccc(O)cc1,inconclusive: -43.5%
14,CCOC(=O)C1=CC[C@@H](c2ccccc2)N(S(=O)(=O)c2ccc(C)cc2)[C@H]1c1ccccc1C,inconclusive: -59.3%
15,CCn1c(=O)c2cc(C(=O)NCCCN3CCN(C)CC3)sc2c2ccccc21,inconclusive: -45.5%
16,CCCCn1c(N)c(N(CC(C)C)C(=O)c2ccc(-n3c(C)ccc3C)cc2)c(=O)[nH]c1=O,inconclusive: -52.8%
17,COCCNC(=O)C1(C)CCN(Cc2ccc(C(C)C)cc2)C1 (centres undefined),inconclusive: -55.6%
18,O=C(CSc1ccccc1)NCCc1ccc(F)cc1,inconclusive: -58.6%
19,COc1cc(/C=C/C(=O)OCC(=O)c2c(N)n(C)c(=O)n(C)c2=O)ccc1OC(F)F,inactive: -6.96%
20,Cc1c(C(=O)Nc2ccc(OC(F)(F)F)cc2)sc2nc3n(c(=O)c12)CCC3,inconclusive: -56.1%
21,CN(C)S(=O)(=O)c1ccc(Cl)c(NC(=O)COC(=O)/C=C/c2ccc3ccccc3n2)c1,inactive: 56.2%

# Copied from above, 3 compounds:
row,SMILES,"activity change, negative = inhibition"
14,CCOc1ccc(NC(=O)c2cc(S(=O)(=O)N3CCc4ccccc43)ccc2F)cc1,inconclusive: -52.2%
15,CCCCOc1ccc(CSCCNC(=S)Nc2ccccc2)cc1,inconclusive: -43.2%
16,C[C@@H](NC(=O)/C(C#N)=C/c1ccc(O)c(O)c1)c1ccccc1,active: -98.2%

# Continued.

row,SMILES,"activity change, negative = inhibition"
1,COC(=O)c1ccc(N=Nc2c(C)[nH]n(-c3ccccc3)c2=O)cc1,inactive: 0.376%
2,O=C(Oc1ccccc1/C=C\C(=O)c1cc2ccccc2o1)c1ccccc1,inactive: 54.6%
3,O=C(NCCc1ccc(Cl)cc1)C1CCC(CNc2c(N3CCCCC3)c(=O)c2=O)CC1 (centres undefined),inconclusive: -50.6%
4,O=C(c1ccc(S(=O)(=O)N2CCCC2)cc1)N1CCCCC1,inactive: -14.8%
5,O=C(NCc1ccccc1)Nc1cccn(Cc2ccccc2Cl)c1=O,inconclusive: -40.4%
6,CCNc1c(NS(=O)(=O)c2ccc([N+](=O)[O-])cc2)c(=O)oc2ccccc12,inconclusive: -46%
7,C/C(=N\OCC(=O)Nc1ccccc1C(C)(C)C)c1ccc2c(c1)OCCO2,inconclusive: -44.7%
8,CC(=O)Nc1ccc(OS(=O)(=O)c2ccc([N+](=O)[O-])cc2)cc1,active: -62.2%
9,Cc1ccc(NC(=O)Cc2coc3ccc(C(C)C)cc23)cc1Cl,inconclusive: -41.9%
10,CC(C)Oc1cc(O)c2c(=O)c(-c3ccc(O)cc3)coc2c1,inconclusive: -57.4%
11,Cc1c(CCC(=O)NCCCn2ccnc2)c(=O)oc2cc3oc4c(c3cc12)CCCC4,inconclusive: -47.1%
12,CCNC(=O)c1cc2c(c(-c3cccc(-c4cccc(C(=O)N(C)C)c4)c3)n1)[C@@H](CCO)N(S(=O)C(C)(C)C)C2 (some centres undefined),inactive: -10.3%
13,CC(C)c1ccc(S(=O)(=O)Nc2ccc(O)c(Sc3ncn[nH]3)c2)cc1,inconclusive: -40.4%
14,COc1ccccc1N(CC(=O)NCCc1ccccc1)C(=O)CCC(=O)Nc1cc(C)ccn1,inactive: 1.33%
15,COC(=O)C1CN(C(=O)c2ccc(OC(F)F)cc2)c2ccccc2O1 (centres undefined),inconclusive: -43.6%
16,COCCNC(=S)N(CCc1c(C)[nH]c2ccc(Cl)cc12)Cc1cccs1,inactive: -20.7%
17,O=C(CCNS(=O)(=O)c1ccccc1)N1CCCCCC1,inactive: 41.9%
18,O=C(NCc1cccnc1)c1nn(-c2ccc(F)cc2)nc1CO,inactive: 20.9%
19,Cc1ccc(-c2nn(-c3ccccc3)cc2NC(=O)CCl)cc1,inconclusive: -55.7%
20,CCc1ccc(N2CC(C(=O)Nc3ccc(C)c(S(=O)(=O)N4CCOCC4)c3)CC2=O)cc1 (centres undefined),inconclusive: -54.3%
21,OC(CNCCC(c1ccccc1)c1ccccc1)COc1ccccc1 (centres undefined),inconclusive: -50%
